# Data as given in PubChem BioAssay AID1259405 (NCATS, 2018).
# Assay: 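Mouse-designed siRNAs used to find CHO productivity engineering targets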 (primary screen)
# Cell system: Chinese hamster CHO-K1 ovary cells with stable secreted eGFP expression
# Knock-down reagent: single siRNA against mouse genes, 0.8 pmol siRNA per well (2 µl of 400 nM stock)
# Duration: 3 days
# Measured: 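Per-well intracellular GFP measured by laser scanning cytometry, plus viability from ATP luminescence, each relative to plate median of non-targeting control wells, in %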
# Scale: GFP, % of control: higher = more GFP per well, higher productivity; viability (ATP), % of control: higher = more viable cells (more ATP)
# Call rule: 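Called active when intracellular GFP, relative to negative control, is at or above 120%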
# In all, the deposit lists about 50,000 reagents; below is an unselected part. About 4,000 of them (8%) were called active. 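Mouse siRNA library applied to hamster cells; one well for each siRNA.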 The numbers tell different reagents against one gene apart.
target gene,siRNA no.,"GFP, % of control","viability (ATP), % of control",call
Mad2l2 (GeneID 71890),1,81.1,69.2,inactive
Mad2l2 (GeneID 71890),2,35.6,48.3,inactive
Mad2l2 (GeneID 71890),3,52.1,87.1,inactive
Fignl1 (GeneID 60530),1,41.5,25.2,inactive
Fignl1 (GeneID 60530),2,36.3,59.2,inactive
Fignl1 (GeneID 60530),3,57.8,43,inactive
Shox2 (GeneID 20429),1,77.3,85.6,inactive
Shox2 (GeneID 20429),2,70.9,61.1,inactive
Shox2 (GeneID 20429),3,48,47.2,inactive
Fitm2 (GeneID 228859),1,74.5,84.5,inactive
Fitm2 (GeneID 228859),2,113,97.7,inactive
Fitm2 (GeneID 228859),3,102,97.6,inactive
Ppp4r3a (GeneID 68734),1,90.2,94.5,inactive
Ppp4r3a (GeneID 68734),2,44.8,58.2,inactive
Ppp4r3a (GeneID 68734),3,99.1,107,inactive
Pip4k2c (GeneID 117150),1,64.2,72.7,inactive
Tm2d2 (GeneID 69742),1,83.7,71,inactive
Tm2d2 (GeneID 69742),2,69.1,66.6,inactive
Tm2d2 (GeneID 69742),3,100,70.1,inactive
Jmjd8 (GeneID 72106),1,82.2,55.9,inactive
Jmjd8 (GeneID 72106),2,63.1,65.1,inactive
Jmjd8 (GeneID 72106),3,62.1,75,inactive
Fbxw19 (GeneID 235612),1,55.5,87.3,inactive
Fbxw19 (GeneID 235612),2,69.7,55,inactive
Fbxw19 (GeneID 235612),3,50,67.3,inactive
Khnyn (GeneID 219094),1,92.1,98.8,inactive
Khnyn (GeneID 219094),2,101,83.6,inactive
Khnyn (GeneID 219094),3,159,147,active
Khnyn (GeneID 219094),4,57.4,82,inactive
Khnyn (GeneID 219094),5,87.8,83.1,inactive
Khnyn (GeneID 219094),6,92.3,89.4,inactive
Dus1l (GeneID 68730),1,128,94.6,active
Dus1l (GeneID 68730),2,79.8,103,inactive
Dus1l (GeneID 68730),3,82,85.7,inactive
Crk (GeneID 12928),1,87.8,104,inactive
Crk (GeneID 12928),2,78.7,88.4,inactive
Crk (GeneID 12928),3,127,147,active
Hsph1 (GeneID 15505),1,84.2,86.9,inactive
Hsph1 (GeneID 15505),2,59.8,73.8,inactive
Hsph1 (GeneID 15505),3,115,116,inactive
Sdr16c5 (GeneID 242285),1,111,104,inactive
Sdr16c5 (GeneID 242285),2,28.7,33,inactive
Sdr16c5 (GeneID 242285),3,61.3,49.7,inactive
Anks1 (GeneID 224650),1,93.4,83.4,inactive
Anks1 (GeneID 224650),2,73.7,66.1,inactive
Anks1 (GeneID 224650),3,48.1,68.7,inactive
Slc13a3 (GeneID 114644),1,47.1,57.8,inactive
Slc13a3 (GeneID 114644),2,50.6,36.6,inactive
Slc13a3 (GeneID 114644),3,118,101,inactive
Map3k4 (GeneID 26407),1,102,98.8,inactive
Clec5a (GeneID 23845),1,82.8,112,inactive
Clec5a (GeneID 23845),2,77.4,63.7,inactive
Vegfb (GeneID 22340),1,74.6,70.3,inactive
Vegfb (GeneID 22340),2,25.2,23.6,inactive
Vegfb (GeneID 22340),3,53.3,66.2,inactive
Vmn1r53 (GeneID 113853),1,42.4,57.5,inactive
Vmn1r53 (GeneID 113853),2,65.7,60.6,inactive
Vmn1r53 (GeneID 113853),3,84.8,82.7,inactive
Bard1 (GeneID 12021),1,91.1,77.4,inactive
Bard1 (GeneID 12021),2,71.8,92.9,inactive
Bard1 (GeneID 12021),3,100,92.8,inactive
Gjb1 (GeneID 14618),1,61.4,70.1,inactive
Gjb1 (GeneID 14618),2,68.9,70.3,inactive
Gjb1 (GeneID 14618),3,88.4,114,inactive
Or10d4 (GeneID 258087),1,38.4,34.4,inactive
Or10d4 (GeneID 258087),2,64.7,85.4,inactive
Or10d4 (GeneID 258087),3,63.8,49.3,inactive
Poc1a (GeneID 70235),1,45.4,62.7,inactive
Poc1a (GeneID 70235),2,133,80.7,active
Poc1a (GeneID 70235),3,61.6,76.9,inactive
Msgn1 (GeneID 56184),1,136,81.2,active
Msgn1 (GeneID 56184),2,134,64.3,active
Msgn1 (GeneID 56184),3,102,66.1,inactive
Tspan3 (GeneID 56434),1,63.3,55.2,inactive
Tspan3 (GeneID 56434),2,89.1,81.4,inactive
Tspan3 (GeneID 56434),3,64.3,51.1,inactive
Or2ag2 (GeneID 258350),1,99.5,90.2,inactive
Or2ag2 (GeneID 258350),2,72.2,63.5,inactive
Or2ag2 (GeneID 258350),3,0.072,366,inactive
Or5ac21 (GeneID 258479),1,69.6,63.1,inactive
Or5ac21 (GeneID 258479),2,59.6,45.1,inactive
Or5ac21 (GeneID 258479),3,71.4,80,inactive
Septin8 (GeneID 20362),1,114,85.1,inactive
Septin8 (GeneID 20362),2,102,112,inactive
